Reference: patent US20170051068A1
Positions count from the first letter of the chain named. These are yes or no findings as the source states them, for the method shown. Some results given as binding are weak or reduced against the parent protein; the word gives no strength.

By UniProt entry, the sequences of proteins in these tests, tags left out. Where a name states a change or a piece, a line headed by the entry shows the natural chain unless it says otherwise.
UniProt Q02223: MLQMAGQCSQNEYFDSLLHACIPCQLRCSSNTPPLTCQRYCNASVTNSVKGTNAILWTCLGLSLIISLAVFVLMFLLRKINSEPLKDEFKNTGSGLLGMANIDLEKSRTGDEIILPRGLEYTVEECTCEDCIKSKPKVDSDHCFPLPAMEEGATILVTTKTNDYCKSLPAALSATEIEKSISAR

B1: BCMB177 (antibody, human IgG4 S228P, lambda, F234A L235A, V domains shown)
VH: QLQLQESGPGLVKPSETLSLTCTVSGGSISSSSYFWGWIRQPPGKGLEWIGSIYYSGRTYYNPSLKSRVTISVDTSKNQFSLKLSSVTAADTAVYYCARHDGATAGLFDYWGQGTLVTVSS
VL: SYVLTQPPSVSVAPGQTARITCGGNNIGSKSVHWYQQPPGQAPVVVVYDDSDRPSGIPERFSGSNSGNTATLTISRVEAGDEAVYYCQVWDSSSDHVVFGGGTKLTVLG
B2: BCMB128 (antibody, human IgG4 S228P, lambda, F234A L235A, V domains shown)
VH: B1 VH with S32G, R58I
VL: B1 VL
B3: BCMB176 (antibody, human IgG4 S228P, lambda, F234A L235A, V domains shown)
VH: B1 VH with R58I
VL: B1 VL

Key:
[1] = target: human BCMA on cells (HEK cells expressing human BCMA; BCMA+ cell lines; patient plasma cells) (human) (UniProt Q02223); assay: flow cytometry, BCMA-expressing cells
[2] = target: monomeric human BCMA (human) (UniProt Q02223); assay: SPR

| Binder | binding [1] | binding [2] |
| --- | --- | --- |
| B1 | binds | binds |
| B2 |  | binds |
| B3 |  | binds |
